The list is a part of this screen's results and no random one: it gathers tests that were run many times, whatever their T/C, doses with no T/C, and many T/C values between a quarter and a half above the control. Other doses and runs of a compound stand elsewhere. T/C: endpoint of the treated group in % of that of the vehicle group. Some doses have a count of surviving animals in place of a T/C: the source holds a T/C of zero for them, seemingly a mark for toxic or unscored doses. Some doses without a T/C left all or most animals alive at the check, yet need not have been tolerated: survival well below the control is almost never listed, so the zero probably covers shortened survival too. Survivors were counted at the toxicity check, usually on the fifth day, unless a day is given; later deaths do not show. Schedule codes are those of the source, taken here to give the interval after Q, in days (D) or hours (H), and the number of doses after X. Counts like (3×) count equal records among those shown. Some entries hold several experiments; the values are given in rising order. For survival time, the PubChem record calls one and a half times the control and up active, and a quarter to a half above the control has no call in these data; cut-offs in other NCI protocols can differ.
System: L1210 leukemia ip in BDF1 mice, survival T/C
Assay: NCI In Vivo Anticancer Drug Screen. Data for tumor model L1210 Leukemia (intraperitoneal) in B6D2F1 (BDF1) mice
Details: T/C endpoint: mean survival time, higher T/C = longer survival
[1] = dose: 200.0 mg/kg/injection, schedule: Q01DX001 (ip), vehicle: carboxymethylcellulose (CMC)
[2] = dose: 1.5 mg/kg/injection, schedule: Q01DX001 (ip), vehicle: saline

COCc1ccc(N2C(N)=NC(N)=NC2(C)C)cc1
survivor count (dose: 200.0 mg/kg/injection, schedule: Q04DX003 (ip), vehicle: saline): 0 of 6 | survivor count (dose: 400.0 mg/kg/injection, schedule: Q04DX003 (ip), vehicle: saline): 0 of 6

O=NN(CCCl)C(=O)NC1CCC(C(=O)O)CC1 (stereo not drawn)
T/C (dose: 6.0 mg/kg/injection, schedule: Q01DX001 (ip), vehicle: saline with Tween-80): 139 % of control | T/C (dose: 8.7 mg/kg/injection, schedule: Q01DX001 (ip), vehicle: saline with Tween-80): 134 % of control | T/C (dose: 20.0 mg/kg/injection, schedule: Q01DX001 (ip), vehicle: saline with Tween-80, evaluated on day 5): 248 % of control | T/C (dose: 20.0 mg/kg/injection, schedule: Q01DX001 (ip), vehicle: saline with Tween-80, evaluated on day 30): 248 % of control | T/C (dose: 20.0 mg/kg/injection, schedule: Q01DX001 (ip), vehicle: saline with Tween-80, evaluated on day 45): 476 % of control | T/C (dose: 20.0 mg/kg/injection, schedule: Q01DX001 (ip), vehicle: saline with Tween-80, evaluated on day 60): 248 % of control | T/C (dose: 30.0 mg/kg/injection, schedule: Q01DX001 (ip), vehicle: saline with Tween-80, evaluated on day 5): 481 % of control | T/C (dose: 30.0 mg/kg/injection, schedule: Q01DX001 (ip), vehicle: saline with Tween-80, evaluated on day 30): 269 % of control | T/C (dose: 30.0 mg/kg/injection, schedule: Q01DX001 (ip), vehicle: saline with Tween-80, evaluated on day 45): 468 % of control | T/C (dose: 30.0 mg/kg/injection, schedule: Q01DX001 (ip), vehicle: saline with Tween-80, evaluated on day 60): 481 % of control | survivor count (dose: 30.0 mg/kg/injection, schedule: Q01DX001 (ip), vehicle: saline with Tween-80): 10 of 10 | survivor count (dose: 139.0 mg/kg/injection, schedule: Q01DX001 (ip), vehicle: saline with Tween-80): 9 of 9 | survivor count (dose: 208.0 mg/kg/injection, schedule: Q01DX001 (ip), vehicle: saline with Tween-80): 9 of 10 (2×)

CC1(C)N=C(N)N=C(N)N1c1cccc(OCCCOc2ccccc2)c1
survivor count (dose: 100.0 mg/kg/injection, schedule: Q01DX001 (ip), vehicle: Klucel (hydroxypropylcellulose) (HPC)): 2 of 6 | survivor count (dose: 400.0 mg/kg/injection, schedule: Q01DX001 (ip), vehicle: Klucel (hydroxypropylcellulose) (HPC)): 2 of 6

CCNC(=S)C(=S)NCC
survivor count (dose: 12.0 mg/kg/injection, schedule: Q01DX009 (ip), vehicle: Klucel (hydroxypropylcellulose) (HPC)): 4 of 6 | survivor count (dose: 25.0 mg/kg/injection, schedule: Q04DX003 (ip), vehicle: Klucel (hydroxypropylcellulose) (HPC)): 6 of 6 | survivor count (dose: 50.0 mg/kg/injection, schedule: Q04DX003 (ip), vehicle: Klucel (hydroxypropylcellulose) (HPC)): 1 of 6 | survivor count (dose: 100.0 mg/kg/injection, schedule: Q04DX003 (ip), vehicle: Klucel (hydroxypropylcellulose) (HPC)): 0 of 6 | survivor count (dose: 200.0 mg/kg/injection, schedule: Q04DX003 (ip), vehicle: Klucel (hydroxypropylcellulose) (HPC)): 0 of 6 | survivor count (dose: 400.0 mg/kg/injection, schedule: Q04DX003 (ip), vehicle: Klucel (hydroxypropylcellulose) (HPC)): 0 of 6

Cn1cc(/C=C\C(=O)O)c2nccnc21
survivor count (dose: 400.0 mg/kg/injection, schedule: Q04DX003 (ip), vehicle: water): 2 of 6

O=C(/C=C/c1ccccc1)CCN1CCC2CCC(C2)C1 (stereo not drawn)
survivor count [1]: 0 of 4 | survivor count (dose: 400.0 mg/kg/injection, schedule: Q01DX001 (ip), vehicle: carboxymethylcellulose (CMC)): 0 of 4

C/C(=N\OC(=O)Nc1ccccc1)c1ccccc1
survivor count [1]: 4 of 4

O=C1C(NCCO)=C(N2CC2)C(=O)C(NCCO)=C1N1CC1
T/C (dose: 0.04 mg/kg/injection, schedule: Q01DX009 (ip), vehicle: saline): 133 % of control | T/C (dose: 0.09 mg/kg/injection, schedule: Q01DX009 (ip), vehicle: saline): 135 and 140 % of control | T/C (dose: 0.09 mg/kg/injection, schedule: Q04DX003 (ip), vehicle: saline): 125 % of control | T/C (dose: 0.18 mg/kg/injection, schedule: Q04DX003 (ip), vehicle: saline): 136 and 144 % of control | T/C (dose: 0.37 mg/kg/injection, schedule: Q04DX003 (ip), vehicle: saline): 127 % of control | T/C (dose: 0.75 mg/kg/injection, schedule: Q01DX001 (ip), vehicle: saline): 141 % of control | T/C (dose: 0.75 mg/kg/injection, schedule: Q01DX009 (ip), vehicle: saline): 176, 228, 234, 305 % of control | T/C (dose: 0.75 mg/kg/injection, schedule: Q04DX003 (ip), vehicle: saline): 146 % of control | T/C [2]: 139 % of control | survivor count [2]: 3 of 6 | survivor count (dose: 1.5 mg/kg/injection, schedule: Q01DX009 (ip), vehicle: saline): 6 of 6 | survivor count (dose: 3.0 mg/kg/injection, schedule: Q01DX001 (ip), vehicle: saline): 3 of 6 and 4 of 6 | survivor count (dose: 3.0 mg/kg/injection, schedule: Q01DX009 (ip), vehicle: saline): 5 of 6 and 6 of 6 | survivor count (dose: 3.12 mg/kg/injection, schedule: Q04DX003 (ip), vehicle: saline): 6 of 6 | survivor count (dose: 6.0 mg/kg/injection, schedule: Q01DX001 (ip), vehicle: saline): 2 of 6 and 5 of 6 | survivor count (dose: 6.0 mg/kg/injection, schedule: Q04DX003 (ip), vehicle: saline): 4 of 6 and 5 of 6 | survivor count (dose: 6.25 mg/kg/injection, schedule: Q04DX003 (ip), vehicle: saline): 1 of 6 | survivor count (dose: 12.0 mg/kg/injection, schedule: Q01DX001 (ip), vehicle: saline): 3 of 6 and 6 of 6 | survivor count (dose: 12.5 mg/kg/injection, schedule: Q04DX003 (ip), vehicle: saline): 5 of 6 | survivor count (dose: 25.0 mg/kg/injection, schedule: Q04DX003 (ip), vehicle: saline): 4 of 6 | survivor count (dose: 50.0 mg/kg/injection, schedule: Q04DX003 (ip), vehicle: saline): 1 of 6 | survivor count (dose: 100.0 mg/kg/injection, schedule: Q04DX003 (ip), vehicle: saline): 0 of 6

Cc1cccc(N(CCOC(=O)Nc2cccc(Cl)c2)CCOC(=O)Nc2cccc(Cl)c2)c1
survivor count (dose: 100.0 mg/kg/injection, schedule: Q01DX001 (ip), vehicle: saline): 4 of 4

Nc1ccc(CCc2ccccc2)cc1
survivor count (dose: 100.0 mg/kg/injection, schedule: Q01DX009 (ip), vehicle: saline with Tween-80): 4 of 6 | survivor count (dose: 200.0 mg/kg/injection, schedule: Q01DX009 (ip), vehicle: saline with Tween-80): 0 of 6

Cc1cn(C2CC(F)C(CO)O2)c(=O)[nH]c1=O (stereo not drawn)
T/C (dose: 200.0 mg/kg/injection, schedule: Q01DX009 (ip), vehicle: saline): 129 % of control | T/C (dose: 216.0 mg/kg/injection, schedule: Q01DX009 (ip), vehicle: saline): 127 % of control | T/C (dose: 400.0 mg/kg/injection, schedule: Q01DX009 (ip), vehicle: saline): 130 % of control | T/C (dose: 600.0 mg/kg/injection, schedule: Q01DX009 (ip), vehicle: saline): 135 % of control | T/C (dose: 1000.0 mg/kg/injection, schedule: Q01DX009 (ip), vehicle: saline): 127 % of control

CC(C)(C)NC(=O)Oc1cccnc1
survivor count (dose: 400.0 mg/kg/injection, schedule: Q01DX009 (ip), vehicle: Klucel (hydroxypropylcellulose) (HPC)): 5 of 6

Nc1nc(N)c(C=O)c(Cl)n1
survivor count (dose: 50.0 mg/kg/injection, schedule: Q01DX001 (ip), vehicle: alcohol): 4 of 4 | survivor count (dose: 100.0 mg/kg/injection, schedule: Q01DX001 (ip), vehicle: alcohol): 3 of 4 | survivor count (dose: 200.0 mg/kg/injection, schedule: Q01DX001 (ip), vehicle: alcohol): 1 of 4 | survivor count (dose: 400.0 mg/kg/injection, schedule: Q01DX001 (ip), vehicle: alcohol): 0 of 4

CC1NCCCNCCCNC(C)c2cccc1n2 (stereo not drawn)
survivor count (dose: 50.0 mg/kg/injection, schedule: Q04DX002 (ip), vehicle: saline): 1 of 3
